According to patent US9062124B2 (priority 2008, dated 2015):

Assay: general procedure: Boc solid-phase peptide synthesis; Boc Thr(OBzl) Pam resin; methoxybenzhydrylamine resin for C-terminal amides; HBTU (FastBoc single couplings); DEPBT for lactams
Details: conjugation step; for final HPLC purity: analytical HPLC, Zorbax C8, 214 nm, MALDI mass spectral analysis

## Glucagon Cys^17 Mal-PEG-5K
  final HPLC purity: aprox. 90%

## Glucagon Cys^24 Mal-PEG-20K
  difficulty met: The product ratio had not significantly improved
  final HPLC purity: ˜90%

## Glucagon Cys^29 Mal-PEG-5K
  final HPLC purity: greater than 95%
